# Results published in PubChem BioAssay AID192 (DTP/NCI, 2004).
# The list does not hold the whole screen: it is rich in T/C values a quarter to a half above the control, in often repeated tests (any T/C) and in doses without a T/C. Further doses and runs are listed elsewhere. T/C: endpoint of the treated group in % of that of the vehicle group. Some doses have a count of surviving animals in place of a T/C: the source holds a T/C of zero for them, seemingly a mark for toxic or unscored doses. Some survivor counts are full or nearly so, which does not show that the dose was tolerated: the source hardly ever lists a survival T/C far under the control, and the zero likely stands for such cases as well. Survivors were counted at the toxicity check, usually on the fifth day, unless a day is given; later deaths do not show. Schedule codes are those of the source, read here as Q, the interval in days (D) or hours (H), X, the number of doses. Counts like (3×) give the number of equal values in this list. Some entries were tested several times; the values are given in rising order. Some structures stand for samples that the source files as different forms (salt, stereo form or complex); doses refer to the form tested. For survival time, the PubChem record calls one and a half times the control and up active, and a quarter to a half above the control has no call in these data; cut-offs in other NCI protocols can differ.
# Test system: BDF1 mice, B16 melanoma ip, median survival T/C
# Assay: NCI In Vivo Anticancer Drug Screen. Data for tumor model B16 Melanoma (intraperitoneal) in B6D2F1 (BDF1) mice
# Settings: T/C endpoint: median survival time, higher T/C = longer survival
# Procedure, shortened: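 Read-out: survival or tumor size, given as treated/control ratio. Controls received vehicle only; animals bore transplantable tumors.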
# [1] = dose: 100.0 mg/kg/injection, schedule: Q01DX009 (ip), vehicle: saline
# [2] = dose: 50.0 mg/kg/injection, schedule: Q01DX009 (ip), vehicle: saline
# [3] = dose: 400.0 mg/kg/injection, schedule: Q01DX009 (ip), vehicle: saline with Tween-80
smiles,measurement,setting,value
Cc1c2ccncc2c(C)c2c1[nH]c1ccccc12,T/C,"dose: 8.0 mg/kg/injection, schedule: Q01DX005 (ip), vehicle: saline with Tween-80",148 % of control
same,T/C,"dose: 10.0 mg/kg/injection, schedule: Q01DX009 (ip), vehicle: saline",136 and 147 % of control
same,T/C,"dose: 10.0 mg/kg/injection, schedule: Q01DX009 (ip), vehicle: water",128 and 130 % of control
same,T/C,"dose: 12.5 mg/kg/injection, schedule: Q04DX003 (ip), vehicle: Klucel (hydroxypropylcellulose) (HPC)",139 % of control
same,T/C,"dose: 20.0 mg/kg/injection, schedule: Q01DX009 (ip), vehicle: saline",140 % of control
same,survivor count,"dose: 20.0 mg/kg/injection, schedule: Q01DX009 (ip), vehicle: water",8 of 10 and 10 of 10
same,T/C,"dose: 25.0 mg/kg/injection, schedule: Q04DX003 (ip), vehicle: Klucel (hydroxypropylcellulose) (HPC)",133 % of control
same,T/C,"dose: 25.0 mg/kg/injection, schedule: Q04DX003 (ip), vehicle: distilled water + Tween-80",139 % of control
same,survivor count,"dose: 32.0 mg/kg/injection, schedule: Q01DX005 (iv), vehicle: saline with Tween-80",0 of 10
same,T/C,"dose: 40.0 mg/kg/injection, schedule: Q01DX009 (ip), vehicle: saline",147 % of control
same,survivor count,"dose: 40.0 mg/kg/injection, schedule: Q01DX009 (ip), vehicle: water",8 of 10 and 10 of 10
same,T/C,"dose: 50.0 mg/kg/injection, schedule: Q04DX003 (ip), vehicle: distilled water + Tween-80, evaluated on day 45",132 % of control
same,T/C,"dose: 50.0 mg/kg/injection, schedule: Q04DX003 (ip), vehicle: distilled water + Tween-80, evaluated on day 60",143 % of control
same,survivor count,"dose: 64.0 mg/kg/injection, schedule: Q01DX005 (ip), vehicle: saline with Tween-80",9 of 10
same,survivor count,"dose: 64.0 mg/kg/injection, schedule: Q01DX005 (iv), vehicle: saline with Tween-80",0 of 10
same,survivor count,"dose: 80.0 mg/kg/injection, schedule: Q01DX009 (ip), vehicle: saline",6 of 6
same,survivor count,"dose: 80.0 mg/kg/injection, schedule: Q01DX009 (ip), vehicle: water",6 of 10
same,survivor count,"dose: 100.0 mg/kg/injection, schedule: Q04DX003 (ip), vehicle: Klucel (hydroxypropylcellulose) (HPC)",10 of 10
same,T/C,"dose: 100.0 mg/kg/injection, schedule: Q04DX003 (ip), vehicle: distilled water + Tween-80",142 % of control
same,survivor count,"dose: 128.0 mg/kg/injection, schedule: Q01DX005 (ip), vehicle: saline with Tween-80",10 of 10
same,survivor count,"dose: 128.0 mg/kg/injection, schedule: Q01DX005 (iv), vehicle: saline with Tween-80",0 of 10
same,survivor count,"dose: 128.0 mg/kg/injection, schedule: Q01DX005 (oral), vehicle: saline with Tween-80",10 of 10
same,survivor count,"dose: 200.0 mg/kg/injection, schedule: Q04DX003 (ip), vehicle: Klucel (hydroxypropylcellulose) (HPC)",10 of 10
same,survivor count,"dose: 200.0 mg/kg/injection, schedule: Q04DX003 (ip), vehicle: distilled water + Tween-80",10 of 10 (2×)
same,survivor count,"dose: 256.0 mg/kg/injection, schedule: Q01DX005 (oral), vehicle: saline with Tween-80",10 of 10
CS(=O)(=O)Nc1ccc(Nc2c3ccccc3nc3cc([N+](=O)[O-])ccc23)cc1,T/C,"dose: 1.25 mg/kg/injection, schedule: Q01DX009 (ip), vehicle: saline sonified",137 % of control
same,T/C,"dose: 3.13 mg/kg/injection, schedule: Q01DX001 (ip), vehicle: saline sonified",126 % of control
same,survivor count,"dose: 5.0 mg/kg/injection, schedule: Q01DX009 (ip), vehicle: saline sonified",10 of 10
same,T/C,"dose: 6.25 mg/kg/injection, schedule: Q01DX001 (ip), vehicle: saline sonified",132 % of control
same,survivor count,"dose: 10.0 mg/kg/injection, schedule: Q01DX009 (ip), vehicle: saline sonified",9 of 10
same,T/C,"dose: 12.5 mg/kg/injection, schedule: Q01DX001 (ip), vehicle: saline sonified",145 % of control
same,T/C,"dose: 25.0 mg/kg/injection, schedule: Q01DX001 (ip), vehicle: saline sonified",147 % of control
same,T/C,"dose: 75.0 mg/kg/injection, schedule: Q01DX001 (ip), vehicle: saline sonified",147 % of control
same,survivor count,"dose: 100.0 mg/kg/injection, schedule: Q01DX001 (ip), vehicle: saline sonified",10 of 10
COc1cc(C)c2c(c1C=O)Oc1c(c(C)c(O)c3c1C(O)OC3=O)OC2=O (stereo not given),survivor count,[1],8 of 10
CN1CCC2(CC1)SSC1(CCN(C)CC1)S2,T/C,[2],133 % of control
same,survivor count,"dose: 400.0 mg/kg/injection, schedule: Q04DX003 (ip), vehicle: saline",5 of 10
COC(=O)CC(=O)c1ccc(C)cc1,survivor count,"dose: 400.0 mg/kg/injection, schedule: Q01DX009 (ip), vehicle: Klucel (hydroxypropylcellulose) (HPC)",10 of 10
CSCCC(C)C,survivor count,"dose: 200.0 mg/kg/injection, schedule: Q04DX003 (ip), vehicle: saline with Tween-80",4 of 10
COC(=O)CC(=O)C=P(c1ccccc1)(c1ccccc1)c1ccccc1,survivor count,"dose: 200.0 mg/kg/injection, schedule: Q01DX009 (ip), vehicle: saline with Tween-80",0 of 10
same,survivor count,[3],0 of 10
CC(C)(C)NC/C(=C\c1ccccc1)C(=O)c1ccccc1,survivor count,"dose: 50.0 mg/kg/injection, schedule: Q01DX009 (ip), vehicle: Klucel (hydroxypropylcellulose) (HPC)",7 of 10
same,survivor count,"dose: 50.0 mg/kg/injection, schedule: Q04DX003 (ip), vehicle: saline with Tween-80",9 of 10
same,survivor count,"dose: 100.0 mg/kg/injection, schedule: Q04DX003 (ip), vehicle: saline with Tween-80",5 of 10
CCCCCC#CC(=O)O,survivor count,"dose: 300.0 mg/kg/injection, schedule: Q01DX009 (ip), vehicle: Klucel (hydroxypropylcellulose) (HPC)",10 of 10
Nc1c2c(nc3ccccc13)CCCC2,survivor count,"dose: 25.0 mg/kg/injection, schedule: Q01DX009 (ip), vehicle: saline",3 of 10
same,survivor count,[2],0 of 10
same,survivor count,[1],0 of 10
CN(C)c1ccc(C(N)=O)cn1,T/C,"dose: 3.0 mg/kg/injection, schedule: Q01DX009 (ip), vehicle: Klucel (hydroxypropylcellulose) (HPC)",138 % of control
same,T/C,"dose: 6.0 mg/kg/injection, schedule: Q01DX009 (ip), vehicle: Klucel (hydroxypropylcellulose) (HPC)",138 % of control
CCc1c2cc(OC)c(OC)cc2cc2c3cc(OC)c(OC)cc3cc[n+]12 (tested in a mixture with another compound),survivor count,"dose: 300.0 mg/kg/injection, schedule: Q01DX009 (ip), vehicle: saline with Tween-80",5 of 10
O=C(Nc1ccc(NC2=NCCN2)cc1)c1cccc(C(=O)Nc2ccc(NC3=NCCN3)cc2)c1,survivor count,"dose: 30.0 mg/kg/injection, schedule: Q01DX009 (ip), vehicle: saline with Tween-80",8 of 10
CC(=O)N(C)O,survivor count,[3],5 of 10
Cc1cc(Cl)ccc1NC(=O)Nc1ccccc1,survivor count,"dose: 100.0 mg/kg/injection, schedule: Q01DX009 (ip), vehicle: gum acacia",10 of 10
same,survivor count,"dose: 200.0 mg/kg/injection, schedule: Q01DX009 (ip), vehicle: gum acacia",10 of 10
same,survivor count,"dose: 400.0 mg/kg/injection, schedule: Q01DX009 (ip), vehicle: gum acacia",9 of 10
Cc1cc2cc3cc(C)c(N)cc3nc2cc1N,T/C,"dose: 3.12 mg/kg/injection, schedule: Q01DX009 (ip), vehicle: saline with Tween-80",136 % of control
same,T/C,"dose: 6.25 mg/kg/injection, schedule: Q01DX009 (ip), vehicle: saline with Tween-80",136 % of control
same,T/C,"dose: 12.5 mg/kg/injection, schedule: Q01DX009 (ip), vehicle: saline with Tween-80",130 and 145 % of control
same,T/C,"dose: 25.0 mg/kg/injection, schedule: Q01DX009 (ip), vehicle: saline with Tween-80",141 % of control
same,survivor count,"dose: 50.0 mg/kg/injection, schedule: Q01DX009 (ip), vehicle: saline with Tween-80",8 of 10 and 10 of 10
same,survivor count,"dose: 100.0 mg/kg/injection, schedule: Q01DX009 (ip), vehicle: saline with Tween-80",6 of 10
O=C(O)c1cccnc1,survivor count,"dose: 200.0 mg/kg/injection, schedule: Q01DX009 (ip), vehicle: Klucel (hydroxypropylcellulose) (HPC)",9 of 10
CCC(=O)c1ccc2c(c1)N(C(C)CN(C)C)c1ccccc1S2 (stereo not given),T/C,"dose: 6.25 mg/kg/injection, schedule: Q01DX009 (ip), vehicle: saline",125 % of control
same,survivor count,[1],2 of 10
